PubChem BioAssay AID1259254 | NCATS | 2017
Aim: 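Finding genes that stop cells copying their DNA twice in one cycle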 (primary screen). Cell system: human HCT116 colorectal cancer cells. Knock-down reagent: single siRNA against human genes. Duration: 3 days. Read-out: 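Nuclei stained with Hoechst and imaged; cell-cycle phase assigned by DNA content; G2 share scaled per plate, non-targeting siRNA 0%, GMNN siRNA 100%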. Reading the numbers: G2 robust z-score and G2 cells, % of GMNN control: higher = more G2 cells, more excess DNA replication; raw share of cells in G2: higher = larger share of cells with G2 DNA content. Call rule: 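An siRNA counts as active if its G2 robust z-score lies at least 5 MADs above the screen median; here such calls match roughly 38% of GMNN control or more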.
The deposit covers about 59,000 reagents; this is an unselected part. In the full data, about 1,550 (2.6%) got an active call. 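G2 share is only a proxy for re-replication; each gene was hit by three separate siRNAs, and active genes were retested.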 The raw values are shown without normalisation. The numbers tell different reagents against one gene apart. Not stated in the record: the amount of reagent.

| gene | reagent no. | G2 robust z-score | G2 cells, % of GMNN control | raw share of cells in G2 (%) | Outcome |
| --- | --- | --- | --- | --- | --- |
| MYO18B (myosin XVIIIB) | 1 | -1.4 | -6.9 | 2.23 | inactive |
| MYO18B (myosin XVIIIB) | 2 | -0.0899 | 2.33 | 5.04 | inactive |
| MYO18B (myosin XVIIIB) | 3 | -0.304 | 0.826 | 5.77 | inactive |
| NLRP6 (NLR family pyrin domain containing 6) | 1 | -1 | -4.07 | 2.14 | inactive |
| NLRP6 (NLR family pyrin domain containing 6) | 2 | -0.852 | -3.03 | 1.94 | inactive |
| NLRP6 (NLR family pyrin domain containing 6) | 3 | -0.428 | -0.0447 | 2.75 | inactive |
| ZFAND4 (zinc finger AN1-type containing 4) | 1 | 0.337 | 5.34 | 3.38 | inactive |
| ZFAND4 (zinc finger AN1-type containing 4) | 2 | 3.22 | 25.6 | 14.4 | inactive |
| ZFAND4 (zinc finger AN1-type containing 4) | 3 | 0.0676 | 3.44 | 4.36 | inactive |
| AASDH (aminoadipate-semialdehyde dehydrogenase) | 1 | -1.1 | -4.74 | 3.69 | inactive |
| AASDH (aminoadipate-semialdehyde dehydrogenase) | 2 | 0.117 | 3.79 | 6.29 | inactive |
| AASDH (aminoadipate-semialdehyde dehydrogenase) | 3 | -0.517 | -0.667 | 4.46 | inactive |
| CHLSN (cholesin) | 1 | -0.536 | -0.801 | 3.84 | inactive |
| CHLSN (cholesin) | 2 | 1.86 | 16.1 | 8.22 | inactive |
| CHLSN (cholesin) | 3 | 0.327 | 5.27 | 4 | inactive |
| OXER1 (oxoeicosanoid receptor 1) | 1 | 2.96 | 23.8 | 14.4 | inactive |
| OXER1 (oxoeicosanoid receptor 1) | 2 | 2.61 | 21.3 | 12 | inactive |
| OXER1 (oxoeicosanoid receptor 1) | 3 | -0.507 | -0.601 | 3.08 | inactive |
| TRMT112P6 (tRNA methyltransferase subunit 11-2 pseudogene 6) | 1 | -0.491 | -0.49 | 4.59 | inactive |
| TRMT112P6 (tRNA methyltransferase subunit 11-2 pseudogene 6) | 2 | 1.3 | 12.1 | 8.22 | inactive |
| TRMT112P6 (tRNA methyltransferase subunit 11-2 pseudogene 6) | 3 | 1.07 | 10.5 | 7.69 | inactive |
| GTF2H1 (general transcription factor IIH subunit 1) | 1 | 0.475 | 6.31 | 5.99 | inactive |
| GTF2H1 (general transcription factor IIH subunit 1) | 2 | 0.686 | 7.79 | 8.96 | inactive |
| GTF2H1 (general transcription factor IIH subunit 1) | 3 | 1.83 | 15.9 | 9.9 | inactive |
| WFIKKN1 | 1 | 4.58 | 35.2 | 22 | inactive |
| WFIKKN1 | 2 | 7.08 | 52.8 | 24.4 | active |
| WFIKKN1 | 3 | -1.17 | -5.23 | 2.72 | inactive |
| CAMKK1 (calcium/calmodulin dependent protein kinase kinase 1) | 1 | 0.261 | 4.8 | 7.08 | inactive |
| CAMKK1 (calcium/calmodulin dependent protein kinase kinase 1) | 2 | -0.00231 | 2.95 | 6.26 | inactive |
| CAMKK1 (calcium/calmodulin dependent protein kinase kinase 1) | 3 | 2.52 | 20.7 | 10.3 | inactive |
| KRTAP4-5 (keratin associated protein 4-5) | 1 | 0.553 | 6.86 | 6.99 | inactive |
| KRTAP4-5 (keratin associated protein 4-5) | 2 | 1.14 | 11 | 6.44 | inactive |
| KRTAP4-5 (keratin associated protein 4-5) | 3 | 2.45 | 20.2 | 9.33 | inactive |
| C5AR2 (complement C5a receptor 2) | 1 | 1.44 | 13.1 | 10.5 | inactive |
| C5AR2 (complement C5a receptor 2) | 2 | 0.235 | 4.62 | 6.13 | inactive |
| C5AR2 (complement C5a receptor 2) | 3 | -1.22 | -5.6 | 1.55 | inactive |

Reformatted: results already given.
CHLSN (cholesin) #3
- G2 robust z-score: 0.327
- G2 cells, % of GMNN control: 5.27
- raw share of cells in G2 (%): 4
- Outcome: inactive

OXER1 (oxoeicosanoid receptor 1) #1
- G2 robust z-score: 2.96
- G2 cells, % of GMNN control: 23.8
- raw share of cells in G2 (%): 14.4
- Outcome: inactive

OXER1 (oxoeicosanoid receptor 1) #2
- G2 robust z-score: 2.61
- G2 cells, % of GMNN control: 21.3
- raw share of cells in G2 (%): 12
- Outcome: inactive

OXER1 (oxoeicosanoid receptor 1) #3
- G2 robust z-score: -0.507
- G2 cells, % of GMNN control: -0.601
- raw share of cells in G2 (%): 3.08
- Outcome: inactive

TRMT112P6 (tRNA methyltransferase subunit 11-2 pseudogene 6) #1
- G2 robust z-score: -0.491
- G2 cells, % of GMNN control: -0.49
- raw share of cells in G2 (%): 4.59
- Outcome: inactive

TRMT112P6 (tRNA methyltransferase subunit 11-2 pseudogene 6) #2
- G2 robust z-score: 1.3
- G2 cells, % of GMNN control: 12.1
- raw share of cells in G2 (%): 8.22
- Outcome: inactive

TRMT112P6 (tRNA methyltransferase subunit 11-2 pseudogene 6) #3
- G2 robust z-score: 1.07
- G2 cells, % of GMNN control: 10.5
- raw share of cells in G2 (%): 7.69
- Outcome: inactive

More results:
| gene | reagent no. | G2 robust z-score | G2 cells, % of GMNN control | raw share of cells in G2 (%) | Outcome |
| --- | --- | --- | --- | --- | --- |
| CTSL3P (cathepsin L family member 3, pseudogene) | 1 | -0.98 | -3.93 | 4.19 | inactive |
| CTSL3P (cathepsin L family member 3, pseudogene) | 2 | -1.43 | -7.1 | 2.39 | inactive |
| CTSL3P (cathepsin L family member 3, pseudogene) | 3 | 0.0229 | 3.13 | 5.08 | inactive |
| HGS (hepatocyte growth factor-regulated tyrosine kinase substrate) | 1 | -0.603 | -1.27 | 5.19 | inactive |
| HGS (hepatocyte growth factor-regulated tyrosine kinase substrate) | 2 | 0.102 | 3.69 | 6.53 | inactive |
| HGS (hepatocyte growth factor-regulated tyrosine kinase substrate) | 3 | -0.222 | 1.4 | 4.13 | inactive |
| SF3B4 (splicing factor 3b subunit 4) | 1 | 3.32 | 26.3 | 12.3 | inactive |
| SF3B4 (splicing factor 3b subunit 4) | 2 | -1.53 | -7.81 | 3.4 | inactive |
| SF3B4 (splicing factor 3b subunit 4) | 3 | 1.38 | 12.7 | 11.2 | inactive |
| LAPTM4A (lysosomal protein transmembrane 4 alpha) | 1 | -0.725 | -2.14 | 4.37 | inactive |
| LAPTM4A (lysosomal protein transmembrane 4 alpha) | 2 | 4.82 | 36.9 | 19.3 | inactive |
| LAPTM4A (lysosomal protein transmembrane 4 alpha) | 3 | -0.322 | 0.705 | 3.66 | inactive |
| GPR21 (G protein-coupled receptor 21) | 1 | 0.628 | 7.38 | 8.48 | inactive |
| GPR21 (G protein-coupled receptor 21) | 2 | 0.417 | 5.9 | 6.58 | inactive |
| GPR21 (G protein-coupled receptor 21) | 3 | -1.07 | -4.59 | 1.86 | inactive |
| MUSTN1 (musculoskeletal, embryonic nuclear protein 1) | 1 | 1.07 | 10.5 | 7.36 | inactive |
| MUSTN1 (musculoskeletal, embryonic nuclear protein 1) | 2 | 0.19 | 4.31 | 5.28 | inactive |
| MUSTN1 (musculoskeletal, embryonic nuclear protein 1) | 3 | 5.33 | 40.5 | 22 | active |
| APTX (aprataxin) | 1 | -0.0289 | 2.76 | 7.21 | inactive |
| APTX (aprataxin) | 2 | -0.936 | -3.62 | 2.91 | inactive |
| APTX (aprataxin) | 3 | -0.0841 | 2.38 | 4.71 | inactive |
| PDHB (pyruvate dehydrogenase E1 subunit beta) | 1 | -1.09 | -4.69 | 3.27 | inactive |
| PDHB (pyruvate dehydrogenase E1 subunit beta) | 2 | 1.49 | 13.5 | 8.36 | inactive |
| PDHB (pyruvate dehydrogenase E1 subunit beta) | 3 | 3.78 | 29.5 | 12.4 | inactive |
| CXCL8 (C-X-C motif chemokine ligand 8) | 1 | -1.32 | -6.32 | 1.88 | inactive |
| CXCL8 (C-X-C motif chemokine ligand 8) | 2 | 4.58 | 35.2 | 17.8 | inactive |
| CXCL8 (C-X-C motif chemokine ligand 8) | 3 | 0.763 | 8.33 | 8.86 | inactive |
| MYO1A (myosin IA) | 1 | -0.623 | -1.42 | 2.73 | inactive |
| MYO1A (myosin IA) | 2 | -1.4 | -6.9 | 2.69 | inactive |
| MYO1A (myosin IA) | 3 | -1.17 | -5.24 | 3.39 | inactive |
| DUT (deoxyuridine triphosphatase) | 1 | -1.24 | -5.74 | 2.93 | inactive |
| DUT (deoxyuridine triphosphatase) | 2 | -0.763 | -2.4 | 3.58 | inactive |
| DUT (deoxyuridine triphosphatase) | 3 | -0.285 | 0.963 | 3.79 | inactive |
